Data from the supplement of paper PMC12823440, “Inhibitors supercharge kinase turnover through native proteolytic circuits” (Nature, 2025).
Counter-ions that a name gives are not always drawn. Some of the results follow. The calls rarely recur for the same compound in another form.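 In K562 cells expressing nanoluciferase-fused kinases, luminescence was recorded at 4 h intervals between 2 and 18 h, normalized as percent of control with DMSO at 100% and a positive control at 0%. A significant (2 sigma) signal drop marks a time point as decreased. The authors' rule for a hit is not shown and takes in more than the number of time points.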

Protein sequences, listed by entry. Tags and fused reporters are not part of them.
UniProt P49137, whole entry, looked up: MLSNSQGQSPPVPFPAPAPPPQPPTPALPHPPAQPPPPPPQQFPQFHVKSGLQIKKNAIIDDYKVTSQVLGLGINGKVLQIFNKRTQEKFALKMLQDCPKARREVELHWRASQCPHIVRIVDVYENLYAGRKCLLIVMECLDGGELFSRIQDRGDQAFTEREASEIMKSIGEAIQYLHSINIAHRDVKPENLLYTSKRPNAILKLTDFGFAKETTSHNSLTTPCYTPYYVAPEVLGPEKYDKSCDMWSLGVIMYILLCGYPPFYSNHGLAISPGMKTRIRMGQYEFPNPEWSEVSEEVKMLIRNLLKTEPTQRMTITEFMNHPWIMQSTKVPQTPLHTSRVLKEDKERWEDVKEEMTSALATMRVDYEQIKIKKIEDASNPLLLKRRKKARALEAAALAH

What follows are compounds tested against MAPKAPK2 (UniProt P49137) (assay: kinase-Nluc reporter destabilization hit call (1 = scored as downregulated) (binary); higher = compound decreases kinase abundance). Conditions: K562; 2-18 h.

kinase-Nluc reporter destabilization hit call, inactive:
Cn1cc(Nc2nccc(N3C[C@H]4CC[C@@H](C3)N4C(=O)[C@@H]3CC3(F)F)n2)cn1 (10 µM) 0
CC(C)=CC(=O)CCC(=O)N1CCN(Cc2cc3nc(-c4cccc5[nH]ncc45)nc(N4CCOCC4)c3s2)CC1 (10 µM) 0
CN(C)CCN(Cc1ccc(Cl)cc1)c1ccccn1 [Chloropyramine hydrochloride] (10 µM) 0
COc1cc([N+](=O)[O-])ccc1S(=O)(=O)N1C[C@@H](CN2CCN(c3ccccn3)CC2)[C@H](c2cccc(F)c2)C1 (relative stereo) (10 µM) 0
Cc1noc(C)c1-c1ccc(-c2cc(C(N)=O)c(NC(N)=O)s2)c(O[C@H]2CCNC2)c1 (10 µM) 0
CC(C)(C)NC(=O)c1cncn1C1CCN(c2ccc(-c3nnc(C(F)(F)F)o3)cn2)CC1 (10 µM) 0
COc1cccc(-n2c(=O)[nH]c3cc(Cl)n(-c4ccc(-c5cccc(OC)c5O)cc4)c3c2=O)c1 (2.5 µM) 0
O=C(Nc1cccnc1)c1cc(C(=O)c2c(F)cccc2Br)c[nH]1 (10 µM) 0
O=C(Nc1cc(Oc2cc(F)c(NC(=O)C3(C(=O)Nc4ccc(F)cc4)CC3)cc2F)ccn1)C1CC1 [Altiratinib] (10 µM) 0
O=C1NC(=O)C(=Cc2ccc(-c3ccc(F)cc3)o2)S1 (stereo in doubt) (10 µM) 0
O=C(NC(NC(=S)Nc1ccc(F)c([N+](=O)[O-])c1)C(Cl)(Cl)Cl)C(c1ccccc1)c1ccccc1 (stereo unspecified) (10 µM) 0
Nc1ncnc2c1ncn2[C@@H]1O[C@H](CO)C[C@H]1O [Cordycepin] (10 µM) 0
CC(C)(NS(=O)(=O)c1ccc2c(Cl)cnc(N=C(N)N)c2c1)C(=O)O (10 µM) 0
COc1cc2ncnc(Nc3cccc(Cl)c3)c2cc1OC (10 µM) 0
CCOc1ccc(C(=O)Nc2ncc([N+](=O)[O-])s2)cc1 (10 µM) 0
CC(C)CN[C@H]1CS(=O)(=O)C[C@@H]1S(=O)(=O)c1ccc(Cl)cc1 (10 µM) 0
CCn1c(=O)c(-c2ccc(-c3cncs3)cc2Cl)cc2cnc(Nc3ccc(N4CCN(C)CC4)cc3)nc21 (2.5 µM) 0
C[C@]1(O)CCC[C@@H]1n1c(=O)c(C(F)F)cc2cnc(NC3CCN(S(C)(=O)=O)CC3)nc21 (10 µM) 0
COc1c(NC(=O)C(=O)c2ccc(OCCN3CCOCC3)c3ccccc23)cc(C(C)(C)C)cc1NS(C)(=O)=O (2.5 µM) 0
COc1cc(S(C)(=O)=O)ccc1Nc1nc2ccc(-c3ccc(NC(=O)[C@H](C)c4ccc(F)cc4)cc3)cn2n1 [Empesertib] (10 µM) 0
Nc1cc(Nc2ccc(S(N)(=O)=O)cc2)ncn1 (10 µM) 0
O=C(O)c1cc(O)ccc1O [2,5-Dihydroxybenzoic acid] (10 µM) 0
OCCNC1CCCc2c1[nH]c1ccc(-c3ccccc3)cc21 (stereo unspecified) (2.5 µM) 0
CC(C)CC1(O)CCN(C(=O)c2ccc(NS(=O)(=O)c3cccc4nccnc34)cc2)CC1 (10 µM) 0
CNC(=O)c1ccc(-c2cnc3cnc(C(=O)N(C)c4ccc(Cl)cc4)cn23)cc1 (2.5 µM) 0
Cc1cc(Nc2cc(Cl)nc(Oc3ccc([N+](=O)[O-])cc3)n2)n[nH]1 [Autophinib] (2.5 µM) 0
CN1CCN(c2ccc(Nc3ncc4nc(Nc5ccccc5)n([C@@H]5CCN(S(=O)(=O)C6CC6)C5)c4n3)cc2)CC1 (2.5 µM) 0
Cc1c(CN2CCN(S(C)(=O)=O)CC2)sc2c(N3CCOCC3)nc(-c3cnc(N)nc3)nc12 (2.5 µM) 0
O=C(NCCCNc1nc(Nc2cccc(NC(=O)N3CCCC3)c2)ncc1I)c1cccs1 (2.5 µM) 0
O=C(/C=C/c1ccc(O[C@@H]2O[C@H](CO)[C@@H](O)[C@H](O)[C@H]2O[C@@H]2OC[C@](O)(CO)[C@H]2O)cc1)c1ccc(O)cc1O [Isoliquiritin apioside] (10 µM) 0
O=C1NC(=O)/C(=C/c2ccc3c(c2)OC(F)(F)O3)S1 (10 µM) 0

An excerpt from above in order of count of non-hydrogen atoms, high to low.
kinase-Nluc reporter destabilization hit call, inactive:
COc1cc(S(C)(=O)=O)ccc1Nc1nc2ccc(-c3ccc(NC(=O)[C@H](C)c4ccc(F)cc4)cc3)cn2n1 [Empesertib] (10 µM) 0
CC(C)(NS(=O)(=O)c1ccc2c(Cl)cnc(N=C(N)N)c2c1)C(=O)O (10 µM) 0
O=C(O)c1cc(O)ccc1O [2,5-Dihydroxybenzoic acid] (10 µM) 0
